{"source": "PubChem BioAssay AID493014", "about": "(National Center for Advancing Translational Sciences (NCATS), 2011)", "note": "Among all 340,000 compounds or so, about 170 (0.05%) were called active. The shares of active, inactive and inconclusive entries below differ from those in the screen. The call rests on the fitted dose curve; in most records, active means well fitted inhibition curve with a large enough effect in the signal ratio, with a control signal flat (not every such curve was filed as active); inconclusive means small, poorly fitted or top-dose-only effect, or effect the other way, or a change in a side signal; inactive means flat fitted curve, though single readings scatter; the % refers to the signal ratio. A potency beside an inconclusive call is a rough fit, not a confirmed value. Potency means the concentration at half of the fitted maximal effect."}
{"test": "qHTS Assay to Find Inhibitors of Chronic Active B-Cell Receptor Signaling;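 on activity change, negative = inhibition: plate controls were basal doxycycline-induced cells for no effect and cells given 10 µM MG132 for full effect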", "conditions": "ABC-DLBCL IkBa-CBG/CBR reporter, luminescence ratio (green luciferase fused to IkBa over red control in TMD8 lymphoma cells), 4 h; activity change, negative = inhibition: at 46.1 µM (top of the series)", "summary_of_the_method": "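TMD8 ABC-DLBCL cells carrying doxycycline-inducible green luciferase fused to IkappaBalpha plus unfused red luciferase were exposed to compounds (up to 46 uM) for 4 hrs at 37C. Activity came from the overlap-corrected green/red luminescence ratio.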"}
{"smiles": "CN(C)C(=O)On1c(-c2ccccc2)nc2ccc(Cl)cc21", "activity change, negative = inhibition": "inconclusive: 26.6%"}
{"smiles": "Cc1ccc(S(=O)(=O)N2CC2(C)CCl)cc1", "note": "(stereo not given)", "activity change, negative = inhibition": "inactive: -2.49%"}
{"smiles": "O=C(COC(=O)c1cccc(O)c1)Nc1ccc(Cl)cc1C(=O)c1ccccc1", "activity change, negative = inhibition": "inactive: -1.13%"}
{"smiles": "CC1CN(c2ccc([N+](=O)[O-])cc2Cl)CCN1", "note": "(stereo not given)", "activity change, negative = inhibition": "inactive: -5.63%"}
{"smiles": "COc1ccc(/C=C2\\SC(=S)N(C(C)C(=O)NC3C=CS(=O)(=O)C3)C2=O)cc1", "note": "(stereo not given)", "Potency": "inconclusive: 35.5 µM [falling, single point]"}
{"smiles": "CCC(=Nc1ccc(OC)cc1OC)c1c(O)n(C2CCCCC2)c(=O)[nH]c1=O", "activity change, negative = inhibition": "inconclusive: -12.9%"}
{"smiles": "N=C(N)c1c(O)n(C2CCCCC2)c(=O)n(C2CCCCC2)c1=O", "activity change, negative = inhibition": "inconclusive: 0.601%"}
{"smiles": "CC(C)(C)P(=O)(c1ccncc1)N1CCCC1", "note": "(stereo not given)", "activity change, negative = inhibition": "inconclusive: 23.4%"}
{"smiles": "Cc1ccccc1C1=NCC(=O)N(CC(=O)NCc2ccco2)c2sc3c(c21)CCCC3", "activity change, negative = inhibition": "inconclusive: -21.9%"}
{"smiles": "NC(Cc1ccccc1)Cc1ccccc1", "activity change, negative = inhibition": "inconclusive: 3.39%"}
{"smiles": "COc1ccc(-n2c(/C=C/c3ccc(O)cc3)nc3ccccc3c2=O)cc1", "Potency": "inconclusive: 11.2 µM [falling, partial curve]"}
{"smiles": "COc1nc2ccccc2c(=O)n1-c1ccc(C)cc1", "activity change, negative = inhibition": "inconclusive: 5.25%"}
{"smiles": "CC[N+]12CCC(CC1)C(=C(c1ccccc1)c1ccccc1)C2", "Potency": "inconclusive: 25.9 µM [falling, single point]"}
{"smiles": "Cc1ccccc1N1C(=O)NC(=O)/C(=C/c2ccc(N3CCOCC3)o2)C1=O", "activity change, negative = inhibition": "inactive: -8.66%"}
{"smiles": "C=CC(=O)NCNC(=O)C=C", "activity change, negative = inhibition": "inactive: 0.0376%"}
{"smiles": "CCCCn1c(O)c(/C=N/NC(=O)c2ccncc2)c(=O)[nH]c1=O", "activity change, negative = inhibition": "inconclusive: -8.55%"}
{"smiles": "O=C(CCC(=O)N1CCOc2ccc(Cl)cc21)N1CCC2(CC1)OCCO2", "activity change, negative = inhibition": "inactive: 0.517%"}
{"smiles": "Cn1c(=O)oc2cc(S(=O)(=O)NCCC(=O)NCCc3ccc(Cl)cc3)ccc21", "activity change, negative = inhibition": "inconclusive: -28.6%"}
{"smiles": "COc1cc2c(cc1O)C[C@H]1NCCc3cc4c(c-2c31)OCO4", "activity change, negative = inhibition": "inactive: 2.58%"}
{"smiles": "O=C(c1ccc2c(c1)N(Cc1ccc(F)cc1Cl)C(=O)c1ccccc1S2)N1CCC2(CC1)OCCO2", "Potency": "inconclusive: 0.794 µM [rising, full curve, poor fit]"}
{"smiles": "O=c1[nH]c(=O)n(Cc2ccccc2Cl)c(O)c1C=Nc1ccc(F)cc1", "Potency": "inconclusive: 31.6 µM [falling, single point]"}
{"smiles": "COc1cc2c(c(OC)c1OC)-c1ccc(O)cc1[C@@H](NC(C)=O)CC2", "Potency": "inconclusive: 0.164 µM [falling, full curve, poor fit]"}
{"smiles": "Oc1ccccc1-[n+]1c(-c2ccccc2)cc(-c2ccccc2)c(O)c1-c1ccccc1", "activity change, negative = inhibition": "inconclusive: -19.4%"}
{"smiles": "CC1(C)COC(Nc2cccc(Cl)c2)=N1", "activity change, negative = inhibition": "inconclusive: -17.9%"}
{"smiles": "COc1ccc(N2CCc3c(C)nc4c(OC)cc(OC)cc4c32)cc1", "activity change, negative = inhibition": "inconclusive: -8.27%"}
{"smiles": "Cc1cccc(-n2c(O)c(/C=C3/C(c4ccccc4)=Nc4ccccc43)c(=O)[nH]c2=O)c1", "Potency": "inconclusive: 22.4 µM [falling, partial curve, poor fit]"}
{"smiles": "CC(=O)OC1(c2ccccc2)CCN(C)CC1(C)C", "note": "(stereo not given)", "activity change, negative = inhibition": "inconclusive: 11.2%"}
{"smiles": "Cc1c(N=Cc2c(O)n(Cc3ccc(F)cc3)c(=O)[nH]c2=O)c(=O)n(-c2ccccc2)n1C", "activity change, negative = inhibition": "inconclusive: -17.3%"}
{"smiles": "CC(=NCCc1c[nH]c2ccccc12)c1c(O)n(Cc2ccccc2)c(=O)[nH]c1=O", "activity change, negative = inhibition": "inconclusive: -2.13%"}
{"smiles": "Cc1ccc(N)c(N)c1", "activity change, negative = inhibition": "inconclusive: -19.8%"}
{"smiles": "Cc1ccc(-c2nc3ccccc3c(=O)n2-c2ccccn2)cc1", "activity change, negative = inhibition": "inconclusive: 13.9%"}
{"smiles": "CCC1(CC)C(=O)N(Cc2ccccc2)C(=O)N(Cc2ccccc2)C1=O", "Potency": "inconclusive: 9.2 µM [rising, partial curve, poor fit]"}
{"smiles": "CCCCCc1cc(O)c2c3c(c(=O)oc2c1)CN(C)CC3", "activity change, negative = inhibition": "inconclusive: 3.86%"}
{"smiles": "O=C(COC(=O)Cc1ccccc1)Nc1nnc(-c2ccccc2)o1", "activity change, negative = inhibition": "inconclusive: 2.08%"}
{"smiles": "O=C(c1ccc(F)cc1)C(CN1CCOCC1)c1ccccc1", "note": "(stereo not given)", "activity change, negative = inhibition": "inconclusive: 7.8%"}
{"smiles": "O=C(c1ccc2c3c(cccc13)CC2)C1CCCN(Cc2ncc[nH]2)C1", "note": "(stereo not given)", "activity change, negative = inhibition": "inactive: 4.63%"}
{"smiles": "CN1C(=O)C(=Cc2ccc(Sc3ccccc3)o2)C(=O)N(C)C1=O", "activity change, negative = inhibition": "inactive: 0.468%"}
{"smiles": "Fc1ccc(NC2=NCCS2)cc1Cl", "activity change, negative = inhibition": "inconclusive: 3.86%"}
{"smiles": "Cc1cc(/C=C2\\C(=O)NC(=O)N(c3cccc(F)c3)C2=O)c(C)n1-c1ccc(C(=O)O)c(Cl)c1", "activity change, negative = inhibition": "inconclusive: -71.4%"}
{"smiles": "CCCC1(CCC)C(=O)NC(=NCc2ccccc2)NC1=O", "activity change, negative = inhibition": "inconclusive: 14.1%"}
{"smiles": "Cc1noc(C)c1CSCC(=O)Nc1ccc(C#N)c(Cl)c1", "activity change, negative = inhibition": "inconclusive: -15.7%"}
{"smiles": "Cc1cc(C(=O)CS(=O)(=O)c2ccc(F)cc2)cc(C)c1OC(=O)N(C)C", "activity change, negative = inhibition": "inactive: 1.1%"}
{"smiles": "CC(C)C[C@H](NC(=O)c1[nH]cnc1C(=O)N[C@H](C)c1ccccc1)C(=O)OC(C)(C)C", "activity change, negative = inhibition": "inconclusive: 16.2%"}
{"smiles": "O=S(=O)(c1ccccc1)N1CCCCC1c1cccnc1", "note": "(stereo not given)", "activity change, negative = inhibition": "inconclusive: -1.39%"}
{"smiles": "COc1ccccc1OCCCn1cc(C=O)c2ccccc21", "activity change, negative = inhibition": "inconclusive: 1.31%"}
{"smiles": "CCCC1COC(Cn2cncn2)(c2ccc(Cl)cc2Cl)O1", "note": "(stereo not given)", "activity change, negative = inhibition": "inactive: 5.69%"}
{"smiles": "Cc1cccc2c1=NC(=O)/C(=C/c1c(O)[nH]c(=O)[nH]c1=O)C=2", "activity change, negative = inhibition": "inactive: -6.25%"}
{"smiles": "COc1cc(O)c(C(=O)O)c(-c2cc(O)c(O)cc2C)c1", "activity change, negative = inhibition": "inconclusive: -13.6%"}
{"smiles": "CC(=O)c1ccc2c(c1)OCO2", "activity change, negative = inhibition": "inactive: 3.96%"}
{"smiles": "CC(C)Sc1nnc([C@@H](N)Cc2ccccc2)o1", "activity change, negative = inhibition": "inconclusive: 0.752%"}
{"smiles": "O=C(O)C1CC(c2ccccc2)=Nc2ccccc2S1", "note": "(stereo not given)", "Potency": "inconclusive: 28.2 µM [falling, single point]"}
{"smiles": "CC1(C)CN=C(Nc2ccc(F)c(F)c2)S1", "activity change, negative = inhibition": "inconclusive: 19.8%"}
{"smiles": "CN1CCC(N(C)c2nc(-c3ccc([N+](=O)[O-])cc3)nc3ccccc23)CC1", "activity change, negative = inhibition": "inconclusive: 13.2%"}
{"smiles": "O=C(O)c1ccc(/C=C/C(=O)c2ccc3c(c2)OCCCO3)cc1", "Potency": "inconclusive: 12.6 µM [falling, partial curve]"}
{"smiles": "CC(C)N1CCN(Cc2cc3c(cc2Cl)OCO3)CC1CCO", "note": "(stereo not given)", "Potency": "inconclusive: 22.4 µM [falling, partial curve]"}
